Laboratory results reported in patent publication US20110039756A1 (basisnote AG, priority 2007, published 2011).
For part of these data: End groups of sequences in plain letters are not given here.

How the values were obtained:
peptide synthesis = settings: whole synthesis, HPLC
[1] = Blind odour test of peptide solutions by twenty participants; settings: for Odour Note (N = 20): 2.125 mg peptide in 6 ml deionised water, blind test on 150 mm filter paper, rated by 20 participants; for Consistency (N = 20): average consistency with which the individual solution could be recognized, 2.125 mg in 6 ml deionised water, 20 participants

Sequence | purity (crude or final not stated) (peptide synthesis) [%] | Odour Note (N = 20) [1] | Consistency (N = 20) [1]
DEYIYRHFE | 78.3 | – | –
DEYIYRHFE [SEQ ID NO: 626] | – | Mild, Acidic | 0.6
EYPDRIMNTF (ligand of HLA-A*24 (A24)) | 77.8 | – | –
EYPDRIMNTF (ligand of HLA-A*24 (A24)) [SEQ ID NO: 3] | – | Acidic, Rubber | 0.8
IAFNSGMEPGVVAEKV (ligand of HLA-DPB1*0401) | 88.2 | – | –
IAFNSGMEPGVVAEKV (ligand of HLA-DPB1*0401) [SEQ ID NO: 13] | – | Mossy | 1
